The campaign covered roughly 580,000 compounds. About 6,100 (1.1%) were called active. Inconclusive means that the source gave no clear call. Such entries were picked first, then a sample of the others. The call rests on the fitted dose curve; in most records, active means well fitted inhibition curve with a large enough effect; inconclusive means small, poorly fitted or top-dose-only effect, or another doubt; inactive means no such curve, though single readings can be large or run the other way. A potency beside an inconclusive call is a rough fit, not a confirmed value.
The compounds below were run against Polyunsaturated fatty acid lipoxygenase ALOX12 (Homo sapiens) (UniProt P18054) (assay: Primary qHTS assay for inhibitors of human arachidonate 12S-lipoxygenase (ALOX12): Round 2). Details: purified 12hLO, xylenol orange hydroperoxide absorbance; activity change, negative = inhibition: at 108 µM (top of the series) unless noted.
Procedure, shortened: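 Purified human 12hLO (150 nM final) in 25 mM Hepes, 0.01% Triton X-100, pH 7.0 was preincubated 15 min at room temperature with compound. Then 40 uM arachidonic acid was added, 30 min. Hydroperoxide was read by Fe-XO absorbance ratio 573/405 nm.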
On the % scale 0 is the no-effect control and ±100 the full control effect; potency means the concentration at half of the fitted maximal effect.

Sequences of proteins named here, by UniProt entry; tags and fusion partners are left off. A change or cut given only in a name is not applied to a line headed by its entry.
UniProt P18054: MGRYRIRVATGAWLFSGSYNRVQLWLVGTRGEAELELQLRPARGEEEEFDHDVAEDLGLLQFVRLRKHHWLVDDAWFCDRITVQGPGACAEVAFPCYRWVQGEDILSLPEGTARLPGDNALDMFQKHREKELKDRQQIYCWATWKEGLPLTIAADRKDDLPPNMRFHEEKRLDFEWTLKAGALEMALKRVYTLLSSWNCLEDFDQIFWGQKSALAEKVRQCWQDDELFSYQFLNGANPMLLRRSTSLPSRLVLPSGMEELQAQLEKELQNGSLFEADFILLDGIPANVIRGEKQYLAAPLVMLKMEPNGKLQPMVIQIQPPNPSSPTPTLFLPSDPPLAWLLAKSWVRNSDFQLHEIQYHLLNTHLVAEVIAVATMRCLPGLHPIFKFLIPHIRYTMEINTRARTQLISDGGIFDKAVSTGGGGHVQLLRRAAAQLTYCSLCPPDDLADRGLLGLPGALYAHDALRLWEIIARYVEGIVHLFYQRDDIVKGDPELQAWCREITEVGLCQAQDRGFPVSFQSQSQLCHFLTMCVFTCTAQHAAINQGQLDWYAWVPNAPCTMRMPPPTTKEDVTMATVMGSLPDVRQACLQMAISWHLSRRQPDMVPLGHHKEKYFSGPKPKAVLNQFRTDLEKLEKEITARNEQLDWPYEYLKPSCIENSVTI

Row | Structure (SMILES) | Potency | activity change, negative = inhibition
1 | CN(CCOc1ccccc1)C(=O)c1ccc(F)c(S(=O)(=O)N2CCOCC2)c1 | inconclusive: 63.1 µM [inhibitor, partial curve, poor fit] | 
2 | COc1ccccc1-c1nc(NCc2cccnc2)c2ccccc2n1 | inconclusive: 50.1 µM [inhibitor, partial curve, poor fit] | 
3 | Cc1ccc(C)c(/C(O)=C2\C(=O)C(=O)N(c3nnc(C)s3)C2c2ccc(C(C)C)cc2)c1 (stereo not given) | active: 44.7 µM | 
4 | COc1ccc(CN2C(=O)C(CC(=O)NCc3cccs3)CC(C(=O)N(C(C)C)C(C)C)=C2C)cc1 (stereo not given) | inconclusive: 141 µM [inhibitor, single point] | 
5 | CCC(C)C(=O)Nc1nc(C)c(-c2csc(Nc3cc(OC)ccc3OC)n2)s1 (stereo not given) | inconclusive: 39.8 µM [inhibitor, partial curve, poor fit] | 
6 | CCOc1cccc(-c2cc(C(=O)OC)c3ccccc3n2)c1 | inconclusive: 89.1 µM [inhibitor, single point] | 
7 | O=c1c2ccccc2[nH]c(=S)n1Cc1cccs1 |  | inactive: 0.917%
8 | CC(C)CC(=O)N1CCN(Cc2ccccc2Br)CC1 | inconclusive: 2 µM [inhibitor, full curve, poor fit] | 
9 | COc1cc(/C=C2/NC(=O)N(Cc3ccccc3F)C2=O)ccc1O |  | inactive: -4.35%
10 | COc1cnn(-c2cccc(C(F)(F)F)c2)c(=O)c1Cl |  | inactive: 159%
11 | CN(C)Cc1cc(CC2(NCc3ccc(F)cc3)COC2)no1 |  | inactive: 8.42% [at 176 µM]
12 | COc1ccc(NS(=O)(=O)c2cc(NC(=O)C3=NN(c4ccccc4)C(=O)CC3)ccc2OC)cc1 |  | inactive: -9.63%
13 | Cc1ccc(S(=O)(=O)CCSc2n[nH]c(=O)n2-c2ccc3c(c2)OCCO3)cc1 | inconclusive: 100 µM [inhibitor, single point] | 
14 | CC(NC(=O)COC(=O)c1cc(NS(=O)(=O)c2ccc(Cl)c([N+](=O)[O-])c2)ccc1O)C1CC2CCC1C2 (stereo not given) |  | inactive: -11.6%
15 | CC(O)(c1ccc(F)c(F)c1)c1nc(-c2ccoc2)cs1 (stereo not given) | inconclusive: 50.1 µM [inhibitor, partial curve, poor fit] | 
16 | COc1ccc(N2CC(C)(NC(C)=O)C2)cc1 |  | inactive: -18.9% [at 176 µM]
17 | CC1=C(C(=O)Nc2ccccc2)C(c2ccccc2Cl)n2ncc(C(=O)Nc3cccc(C)c3)c2N1 (stereo not given) | inconclusive: 141 µM [inhibitor, partial curve, poor fit] | 
18 | CCCCNC(=O)CNC(=O)c1nn(-c2ccc(OC)cc2OC)c(=O)c2ccccc12 | inconclusive: 44.7 µM [inhibitor, single point] | 
19 | COc1ccc(N/C=C/C(=O)c2ccc(Cl)cc2)cc1 | inconclusive: 50.1 µM [inhibitor, single point] | 
20 | CCCCNC(=O)CCCn1c(=O)c2ccccc2n(Cc2ccc(Cl)cc2)c1=O | inconclusive: 126 µM [inhibitor, partial curve, poor fit] | 
21 | Cc1ccc(C(=O)/C=C/c2cc(Br)c(O)c(Br)c2)cc1 | active: 28.2 µM | 
22 | Cc1cn2nc(C(=O)Nc3cccc(F)c3C)cc2c(N2CCCC2)n1 | inconclusive: 2 µM [inhibitor, full curve, poor fit] | 

Taken from above (two entries):
Row | Structure (SMILES) | Potency | activity change, negative = inhibition
8 | CC(C)CC(=O)N1CCN(Cc2ccccc2Br)CC1 | inconclusive: 2 µM [inhibitor, full curve, poor fit] | 
9 | COc1cc(/C=C2/NC(=O)N(Cc3ccccc3F)C2=O)ccc1O |  | inactive: -4.35%

Remaining list, next part

Row | Structure (SMILES) | Potency | activity change, negative = inhibition
23 | Cc1nn(-c2ccc(C(C)(C)C)cc2)c(C)c1[C@@H]1C=C[C@@H](NC(=O)c2cccs2)C1 | inconclusive: 44.7 µM [inhibitor, partial curve] | 
24 | CC(=O)c1cccc(NC(=O)C(Sc2nnc(-c3ccoc3C)o2)c2ccccc2)c1 (stereo not given) | inconclusive: 39.8 µM [inhibitor, partial curve, poor fit] | 
25 | COc1ccccc1CNC(=O)Nc1nc(C(N)Cc2ccc(Cl)cc2)cs1 (stereo not given) |  | inactive: -1.65%
26 | O=C(COc1cccc2cccnc12)NCC(F)(F)F | inconclusive: 31.6 µM [inhibitor, single point] | 
27 | CSc1nc(N)c2c(n1)NC1=C(C(=O)CC(C)(C)C1)C2c1cccnc1 (stereo not given) |  | inactive: -23%
28 | O=C(Nc1nnc(C2CCCCC2)s1)c1ccc2ccccc2n1 |  | inactive: -0.912%
29 | Cc1ccccc1OCc1nnc(SCC(=O)O)n1-c1cccc(Cl)c1 | inconclusive: 7.08 µM [inhibitor, full curve, poor fit] | 
30 | CCN(CC)C1CCS(=O)(=O)C1 (stereo not given) |  | inactive: 0%
31 | CCC(C)NC(=O)c1c(N)n(/N=C/c2ccccn2)c2nc3ccccc3nc12 (stereo not given) |  | inactive: -23.8%
32 | CN(Cc1ccc(Cl)cc1)C(=O)Cn1nnn(-c2cccs2)c1=O | inconclusive: 5.62 µM [inhibitor, partial curve, poor fit] | 
33 | COc1ccc(Cc2nc3ccc(C(=O)N4CCC(N(C)C)C4)cc3o2)cc1 (stereo not given) | inconclusive: 56.2 µM [inhibitor, partial curve, poor fit] | 
34 | CCN(CC(=O)NCc1ccc(Cl)cc1)C(=O)CSc1ccccc1 | inconclusive: 79.4 µM [inhibitor, partial curve, poor fit] | 
35 | CC(=O)NC1(C)CCN(Cc2cnc(-c3ccccc3OCc3ccccc3)s2)CC1 | active: 8.91 µM | 
36 | CCN1CCN(c2ccc(S(=O)(=O)N3CCCCC3)cc2NC(=O)c2cccc(C(F)(F)F)c2)CC1 | inconclusive: 39.8 µM [inhibitor, partial curve, poor fit] | 
37 | C[C@@H]1CN([C@H](C)CO)C(=O)c2c(c3ccccc3n2C)-c2ccccc2CO[C@H]1CN(C)C(=O)CCC(F)(F)F | inconclusive: 35.5 µM [inhibitor, single point] | 
38 | N#CCCSc1sc(=S)sc1SCc1c(F)c(F)c(F)c(F)c1F | inconclusive: 28.2 µM [inhibitor, partial curve, poor fit] | 
39 | O=C(NN=Cc1cc(Cl)ccc1[N+](=O)[O-])c1cccc2ccccc12 | inconclusive: 44.7 µM [inhibitor, partial curve, poor fit] | 
40 | CC(C)(C)OC(=O)N1CCC(c2c(C(=O)N3CCOCC3)cnn2-c2ccccc2Cl)CC1 |  | inactive: 2.64%
41 | O=S(=O)(Nc1nc2ccccc2nc1Cl)c1ccc2c(c1)OCCO2 | inconclusive: 12.6 µM [inhibitor, full curve, poor fit] | 
42 | COC(=O)[C@@H]1Cc2c([nH]c3ccccc23)C(C)(C)N1C(=O)CCl | inconclusive: 7.94 µM [inhibitor, full curve, poor fit] | 
43 | COc1ccccc1CNCc1ccco1 | inconclusive: 0.282 µM [inhibitor, full curve, poor fit] | 
44 | CCn1c(C(=O)N(C2CC2)C2CC2)cc2c3c(ncn3C)c(Nc3cc(C)n(C)n3)nc21 | inconclusive: 1.53 µM [inhibitor, partial curve, poor fit] | 

Row | Structure (SMILES) | Potency | activity change, negative = inhibition
45 | Cc1ccc(C)c(S(=O)(=O)/N=C2\C=C(NS(=O)(=O)c3ccccc3)C(=O)c3ccccc32)c1 | inconclusive: 50.1 µM [inhibitor, partial curve, poor fit] | 
46 | O=C(NC1CCCN(Cc2ccc(Cl)cc2)C1)c1ccnc(Cl)c1 (stereo not given) | inconclusive: 44.7 µM [inhibitor, partial curve, poor fit] | 
47 | Cc1cc(C(=O)N2C[C@@H](COc3ccccc3)[C@H](C(N)=O)C2)ccn1 |  | inactive: 46.4%
48 | O=C(O)c1ccc(-c2ccccc2)cc1C(=O)O | inconclusive: 39.8 µM [inhibitor, partial curve, poor fit] | 
49 | COc1ccc(OC)c(S(=O)(=O)N2CCN(c3ccccc3OC)CC2)c1 | inconclusive: 35.5 µM [inhibitor, partial curve, poor fit] | 
50 | O=C(OCC(=O)c1ccc(Cl)cc1Cl)c1ccc2ccccc2n1 | inconclusive: 1.78 µM [inhibitor, full curve] | 
51 | COc1cccc(CN2CCN(C(=O)c3ccc(-c4ccccc4)cc3)CC2)c1 | inconclusive: 3.98 µM [inhibitor, full curve] | 
52 | COc1ccc(N2C(=O)CCC2(C#N)c2ccccc2OCc2ccccc2)cc1 (stereo not given) |  | inactive: 19.7%
53 | COc1ccccc1N1CCN(C(=O)c2ccc(N3CCCCS3(=O)=O)cc2)CC1 |  | inactive: 42.3%
54 | O=C(NNC(=O)C1CCN(S(=O)(=O)c2ccc(Cl)cc2)CC1)c1ccccc1O | inconclusive: 0.562 µM [inhibitor, full curve, poor fit] | 
55 | COc1cccc(C(=O)N2CCCC(Nc3ccc(C)c(C)c3)C2)c1 (stereo not given) | inconclusive: 79.4 µM [inhibitor, partial curve, poor fit] | 
56 | Cc1ccc2nc3cc([N+](=O)[O-])cc([N+](=O)[O-])c3cc2c1 |  | inactive: -13.6%
57 | Fc1ccccc1-c1ccc(CNCc2ccccc2)o1 | inconclusive: 35.5 µM [inhibitor, partial curve, poor fit] | 
58 | CCOCCCNC(=O)CN1C(=O)c2c(c3ccccc3n2C)C1c1ccc(OC)cc1 (stereo not given) |  | inactive: -26.4%
59 | COc1ccc(NC(=C(C#N)C#N)C(F)(F)C(F)(F)F)cc1 | inconclusive: 39.8 µM [inhibitor, partial curve, poor fit] | 
60 | Cn1cc(/C=N/Nc2ccccc2)c2ccccc21 | inconclusive: 44.7 µM [inhibitor, partial curve] | 
61 | NC(=O)c1ccc(NC(=O)Cc2cccs2)cc1 | inconclusive: 39.8 µM [inhibitor, partial curve, poor fit] | 
62 | COc1ccc(N2C(=O)CC(N(CCc3ccccc3)C(=O)c3ccccc3)C2=O)cc1 (stereo not given) | inconclusive: 100 µM [inhibitor, single point] | 
63 | COc1ccc(C(=O)N2CCCN(c3cc(-c4ccc(Cl)cc4)[nH]n3)CC2)c(C)c1 | inconclusive: 70.8 µM [inhibitor, single point] | 
64 | COC1=C(OC)c2ccccc2C(C(=O)O)N/C1=C(/C)Nc1ccncc1 (stereo not given) | inconclusive: 56.2 µM [inhibitor, partial curve, poor fit] | 
65 | CN(C)CCC(=O)NCC1OCCc2ccccc21 (stereo not given) |  | inactive: 0%

Source: PubChem BioAssay AID1671190 (National Center for Advancing Translational Sciences (NCATS), 2021)
